Two substances from publication PMC7237858 can be followed below.

This experiment concerns the target T1, serine- and arginine-rich splicing factor 3 (SRSF3), HA fusion, wild type (UniProt P84103).
T1 sequence: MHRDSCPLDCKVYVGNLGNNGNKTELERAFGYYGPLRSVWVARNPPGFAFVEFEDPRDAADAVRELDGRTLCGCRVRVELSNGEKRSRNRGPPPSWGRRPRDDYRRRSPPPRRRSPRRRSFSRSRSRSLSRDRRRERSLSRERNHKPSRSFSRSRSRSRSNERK
The experiment is described as follows: co-IP; SRSF3-HA (wild type or mutants) and SRSP-Flag (wild type or mutants) plasmids transfected into HEK293T cells; lysates without RNase A (Figure 4C; RNase not mentioned for the mutant panels); complexes co-IPed with anti-HA or anti-Flag antibodies, partner detected by blot.

Results are given in words; binding and its absence hold for the method and conditions named. Binding seen in cells or lysates may run through a third protein. Binding can be weak; no strength is given. Where a sequence is shown, tags or fusion partners need not be part of it.

Take “SRSP-Flag mutant of the proline-arginine-arginine (PRR) motif (human)”: the binding result is recorded as “binds”. The same measure for “SRSP-Flag N-terminus (1-60 aa) (human) (domain or fragment)”: “binds”.
